Measured values reported in patent US12630630 (SHANGHAI HENLIUS BIOTECH, dated 2026).
Substitutions are numbered along the chain they refer to. These are yes or no findings as the source states them, for the method shown. Some results given as binding are weak or reduced against the parent protein; the word gives no strength.

The chains behind the UniProt entries cited, without tags or fusion partners. Where a name states a change or a piece, a line headed by the entry shows the natural chain unless it says otherwise.
UniProt Q08722: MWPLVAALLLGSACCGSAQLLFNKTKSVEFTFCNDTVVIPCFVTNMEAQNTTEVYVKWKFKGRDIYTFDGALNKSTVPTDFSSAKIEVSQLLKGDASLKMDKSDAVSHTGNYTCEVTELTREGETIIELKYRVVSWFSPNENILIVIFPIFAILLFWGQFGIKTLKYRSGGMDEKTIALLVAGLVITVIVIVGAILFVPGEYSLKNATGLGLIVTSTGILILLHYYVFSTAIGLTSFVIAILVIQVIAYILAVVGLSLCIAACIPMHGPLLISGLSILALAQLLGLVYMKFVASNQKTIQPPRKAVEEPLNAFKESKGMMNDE

How the values were obtained:
[1] = target: CD47 on human cells (Raji, Jurkat, red blood cells) (human) (UniProt Q08722); assay: flow cytometry on Jurkat cells
[2] = target: CD47 on human cells (Raji, Jurkat, red blood cells) (human) (UniProt Q08722); assay: flow cytometry, whole-cell binding to Raji cells, FITC secondary antibody
[3] = target: CD47 on human cells (Raji, Jurkat, red blood cells) (human) (UniProt Q08722); assay: flow cytometry, whole-cell binding to red blood cells
[4] = target: CD47 on human cells (Raji, Jurkat, red blood cells) (human) (UniProt Q08722); assay: flow cytometry, whole-cell binding to Jurkat cells
[5] = target: CD47 on human cells (Raji, Jurkat, red blood cells) (human) (UniProt Q08722); assay: flow cytometry on Raji cells
[6] = target: CD47 on human cells (Raji, Jurkat, red blood cells) (human) (UniProt Q08722); assay: flow cytometry competition: antibody and a fixed concentration of biotin-human SIRPα-Fc co-incubated with CD47-expressing cells (Jurkat in Example 2; the legend also names Raji), streptavidin-PE
[7] = target: CD47 on human cells (Raji, Jurkat, red blood cells) (human) (UniProt Q08722); assay: flow cytometry on red blood cells

Measured: binding

B1: Clone M1 (antibody, human IgG4 S228P, lambda, V domains shown)
VH: QVQLQQWGAGLLKPSETLSLTCAVYGGSFSGYYWSWIRQPPGKGLEWIGEINHSGSTNYNPSLKSRVTISVDTSKNQFSLRLSSVTAADTAMYYCARFTGRPYYGMDVWGQGTTVTVSS
VL: LSYELTQPPSVSATPGQRVTISCSGSESNIGSHKVKWYQQFAGAAPRLLIHGNDQRRSGVPDRFSGSKSGTSASLAISGLQSEDEADYYCAAWDDSLNGRVFGGGTKLTVLG
notes: also called antibody clone M1
binds: [1] | [2] | [3] | [4] | [5] | [6] | [7]

B2: Clone M1 #46 (antibody, human IgG4 S228P, lambda, V domains shown)
VH: B1 VH with T99S
VL: B1 VL with N98Y
binds: [1] | [3] | [4] | [6] | [7]

B3: Clone M1 #11 (antibody, human IgG4 S228P, lambda, V domains shown)
VH: B1 VH with T99H
VL: B1 VL with S58R, N98Y
binds: [1] | [3] | [4] | [6] | [7]

B4: Clone M1 #21 (antibody, human IgG4 S228P, lambda, V domains shown)
VH: B1 VH with H53Q
VL: B1 VL with R57F, N98Y
binds: [1] | [3] | [4] | [6] | [7]

B5: Clone M1 #55 (antibody, human IgG4 S228P, lambda, V domains shown)
VH: B1 VH with T99K
VL: B1 VL with S58E, N98Y
binds: [1] | [3] | [4] | [6] | [7]

B6: Clone M1 #25 (antibody, human IgG4 S228P, lambda, V domains shown)
VH: B1 VH with T57V
VL: B1 VL with N98A
binds: [1] | [3] | [4] | [7]

B7: Clone M1 #33 (antibody, human IgG4 S228P, lambda, V domains shown)
VH: B1 VH with N58R, T99I
VL: B1 VL with G52D
binds: [1] | [3] | [4] | [6] | [7]
